Measured values taken from article PMC4780704, “A Parallel G Quadruplex-Binding Protein Regulates the Boundaries of DNA Elimination Events of Tetrahymena thermophila”.
pKd: −log10 of the molar value. The exact form of at least one protein or probe is not confirmed. For some assays here: A negative result means that nothing was seen under these conditions. For some assays here: At least one verdict was read from the data and is not stated in words by the source. Where a protein sequence is shown, tags need not be part of it. For some assays here: A weaker result is weaker than the reference pair of the same experiment.

What was measured:
[1] = target: T1, His-Lia3 (Tetrahymena thermophila) (UniProt A3F815); assay: competition with a labelled probe; settings: 5X/20X vs G4-M1 probe, LiCl, EMSA: 10 mM Tris pH 7.5, 1 mM EDTA, 0.1 mM DTT, 5% glycerol, 0.010 mg/ml BSA, 100 mM KCl (or 100 mM LiCl to limit G4), 4 nM probe, RT, recombinant protein, protein details: N-terminal His
T1 sequence (looked up, limits assumed): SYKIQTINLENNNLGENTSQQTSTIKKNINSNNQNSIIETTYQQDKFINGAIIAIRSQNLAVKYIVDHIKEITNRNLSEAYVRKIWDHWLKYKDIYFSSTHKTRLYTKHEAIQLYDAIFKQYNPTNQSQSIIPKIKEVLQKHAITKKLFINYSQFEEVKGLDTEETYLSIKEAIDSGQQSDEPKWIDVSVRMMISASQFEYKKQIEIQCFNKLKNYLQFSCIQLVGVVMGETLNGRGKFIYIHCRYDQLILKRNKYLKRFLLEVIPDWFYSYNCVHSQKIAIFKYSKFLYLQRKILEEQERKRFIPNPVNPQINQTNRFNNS

[2] = target: T1, His-Lia3 (Tetrahymena thermophila); assay: EMSA; settings: EMSA: 10 mM Tris pH 7.5, 1 mM EDTA, 0.1 mM DTT, 5% glycerol, 0.010 mg/ml BSA, 100 mM KCl (or 100 mM LiCl to limit G4), recombinant protein, protein details: N-terminal His, label: 32P (5' PNK), unlabeled as competitor; for pKd: 100 mM LiCl, extrapolated, 4 nM probe …
[3] = target: T2, MBP-Lia3 (Tetrahymena thermophila) (UniProt A3F815); assay: EMSA; settings: 50-400 nM protein, LiCl; EMSA: 10 mM Tris pH 7.5, 1 mM EDTA, 0.1 mM DTT, 5% glycerol, 0.010 mg/ml BSA, 100 mM KCl (or 100 mM LiCl to limit G4), 4 nM probe, RT; recombinant protein; protein details: N-terminal MBP-TEV-His; label: 32P (5' PNK), unlabeled as competitor; single-stranded DNA
T2 sequence (looked up, limits assumed): T1 sequence (looked up, limits assumed)

[4] = label: unlabeled competitor, single-stranded DNA

Does TTCAAGACAAAAAAAGGGGGATGGGTTTCC [ssM2] bind [1, 4]?
Result: no binding

Does TTTATTAATCAAAAAGCGGGTAAATAATAA [M1-mut] bind [1, 4]?
Result: no binding

Does “TTTATTAATCAAAAAGGGGGTAAATAATAA (double strand) [dsM1]” bind ([2]; 300 nM protein, weakly or not at all, 4 nM probe, RT)?
Result: binds more weakly

And the pKd [2]?
The pKd was less than 3.70.

Does “TTTATTAATCAAAAAGGGGGTAAATAATAA (double strand) [dsM1]” bind ([1]; label: 32P (5' PNK), unlabeled as competitor)?
Result: no binding

Does TTTATTAATCAAAAAGGGGGTAAATAATAA [ssM1] bind [3]?
Result: no binding

What about the pKd ([2]; single-stranded DNA) of the same sequence?
The pKd was less than 3.70.

Does TTTATTAATCAAAAAGGGGGTAAATAATAA [ssM1] bind ([1]; label: 32P (5' PNK), unlabeled as competitor, single-stranded DNA)?
Result: no binding
